According to the supplement of paper PMC10849652:
The list shows a part of the results.

By UniProt entry, the sequences of proteins in these tests, tags left out. Where a name states a change or a piece, a line headed by the entry shows the natural chain unless it says otherwise.
UniProt Q9BU76: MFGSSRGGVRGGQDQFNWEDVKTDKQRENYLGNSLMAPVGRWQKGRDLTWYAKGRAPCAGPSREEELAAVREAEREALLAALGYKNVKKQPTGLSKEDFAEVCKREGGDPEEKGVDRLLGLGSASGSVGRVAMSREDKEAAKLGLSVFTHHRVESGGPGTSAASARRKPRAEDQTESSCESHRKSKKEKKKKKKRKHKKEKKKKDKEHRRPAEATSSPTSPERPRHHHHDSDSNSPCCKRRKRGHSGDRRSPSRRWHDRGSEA
UniProt Q9UL63, whole entry, looked up: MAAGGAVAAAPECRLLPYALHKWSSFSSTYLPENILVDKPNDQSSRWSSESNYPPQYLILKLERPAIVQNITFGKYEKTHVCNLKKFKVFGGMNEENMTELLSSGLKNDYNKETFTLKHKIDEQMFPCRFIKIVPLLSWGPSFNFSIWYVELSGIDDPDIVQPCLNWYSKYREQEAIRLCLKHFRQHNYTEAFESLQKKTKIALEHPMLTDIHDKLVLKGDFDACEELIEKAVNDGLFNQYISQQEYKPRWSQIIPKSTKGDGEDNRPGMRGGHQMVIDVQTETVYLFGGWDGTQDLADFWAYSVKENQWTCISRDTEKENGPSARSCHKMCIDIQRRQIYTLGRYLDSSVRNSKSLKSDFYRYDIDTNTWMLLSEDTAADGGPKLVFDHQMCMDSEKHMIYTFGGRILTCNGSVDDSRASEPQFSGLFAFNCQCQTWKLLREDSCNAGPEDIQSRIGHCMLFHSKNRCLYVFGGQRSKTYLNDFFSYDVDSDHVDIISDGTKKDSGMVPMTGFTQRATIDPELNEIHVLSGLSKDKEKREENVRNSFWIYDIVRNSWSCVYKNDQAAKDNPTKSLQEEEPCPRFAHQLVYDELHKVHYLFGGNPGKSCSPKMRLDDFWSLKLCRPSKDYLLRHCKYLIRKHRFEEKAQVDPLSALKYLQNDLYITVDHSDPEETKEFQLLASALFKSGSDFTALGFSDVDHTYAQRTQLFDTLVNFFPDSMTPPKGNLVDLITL
UniProt Q8N4C8: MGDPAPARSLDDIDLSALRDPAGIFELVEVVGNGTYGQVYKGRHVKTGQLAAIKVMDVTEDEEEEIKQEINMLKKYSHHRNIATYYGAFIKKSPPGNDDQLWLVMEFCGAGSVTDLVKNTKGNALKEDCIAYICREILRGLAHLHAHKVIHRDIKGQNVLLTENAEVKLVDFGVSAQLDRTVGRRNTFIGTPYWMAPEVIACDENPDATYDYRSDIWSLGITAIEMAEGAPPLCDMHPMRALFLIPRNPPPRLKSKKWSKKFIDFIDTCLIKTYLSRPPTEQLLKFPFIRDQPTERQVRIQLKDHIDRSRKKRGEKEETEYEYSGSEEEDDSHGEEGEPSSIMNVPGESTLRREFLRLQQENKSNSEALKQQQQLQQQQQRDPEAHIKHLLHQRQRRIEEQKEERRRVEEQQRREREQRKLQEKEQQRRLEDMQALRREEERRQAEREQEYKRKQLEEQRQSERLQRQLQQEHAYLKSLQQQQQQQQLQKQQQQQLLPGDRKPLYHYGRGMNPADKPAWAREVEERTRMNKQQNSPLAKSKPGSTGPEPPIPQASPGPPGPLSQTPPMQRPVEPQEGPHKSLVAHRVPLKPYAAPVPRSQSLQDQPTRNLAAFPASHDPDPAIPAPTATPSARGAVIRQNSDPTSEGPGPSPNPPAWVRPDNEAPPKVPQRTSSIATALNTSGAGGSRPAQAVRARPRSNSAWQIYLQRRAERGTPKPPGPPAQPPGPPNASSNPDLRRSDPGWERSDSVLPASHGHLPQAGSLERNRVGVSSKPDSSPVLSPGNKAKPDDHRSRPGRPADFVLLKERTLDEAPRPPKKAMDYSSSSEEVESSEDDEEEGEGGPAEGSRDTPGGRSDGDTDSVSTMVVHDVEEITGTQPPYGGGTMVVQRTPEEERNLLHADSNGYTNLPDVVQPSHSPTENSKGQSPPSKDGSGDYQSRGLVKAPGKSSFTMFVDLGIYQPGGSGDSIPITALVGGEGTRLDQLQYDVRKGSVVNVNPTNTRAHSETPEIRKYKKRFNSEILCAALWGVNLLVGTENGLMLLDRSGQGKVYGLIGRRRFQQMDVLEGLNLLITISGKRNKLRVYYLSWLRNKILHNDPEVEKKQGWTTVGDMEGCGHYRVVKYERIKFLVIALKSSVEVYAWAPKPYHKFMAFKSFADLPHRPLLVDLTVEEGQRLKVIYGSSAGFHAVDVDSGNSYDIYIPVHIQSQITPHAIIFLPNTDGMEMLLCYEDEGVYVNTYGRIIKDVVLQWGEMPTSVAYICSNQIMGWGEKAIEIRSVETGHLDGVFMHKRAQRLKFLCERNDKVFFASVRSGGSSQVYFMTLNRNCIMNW
UniProt Q7L1V2: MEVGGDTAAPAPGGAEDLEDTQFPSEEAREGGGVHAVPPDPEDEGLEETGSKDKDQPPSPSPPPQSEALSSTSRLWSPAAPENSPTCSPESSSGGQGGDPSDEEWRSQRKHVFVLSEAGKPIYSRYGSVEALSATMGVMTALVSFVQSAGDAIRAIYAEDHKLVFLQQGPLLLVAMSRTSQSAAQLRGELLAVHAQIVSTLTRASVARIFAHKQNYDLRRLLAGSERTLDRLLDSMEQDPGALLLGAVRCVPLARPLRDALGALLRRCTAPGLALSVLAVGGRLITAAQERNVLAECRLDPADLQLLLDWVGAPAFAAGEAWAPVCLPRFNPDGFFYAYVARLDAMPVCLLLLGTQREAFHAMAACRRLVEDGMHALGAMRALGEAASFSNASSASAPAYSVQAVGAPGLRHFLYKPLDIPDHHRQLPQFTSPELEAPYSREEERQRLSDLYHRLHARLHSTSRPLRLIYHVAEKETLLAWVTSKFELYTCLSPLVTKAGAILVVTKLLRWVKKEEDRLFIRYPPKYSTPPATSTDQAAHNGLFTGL
UniProt Q03111: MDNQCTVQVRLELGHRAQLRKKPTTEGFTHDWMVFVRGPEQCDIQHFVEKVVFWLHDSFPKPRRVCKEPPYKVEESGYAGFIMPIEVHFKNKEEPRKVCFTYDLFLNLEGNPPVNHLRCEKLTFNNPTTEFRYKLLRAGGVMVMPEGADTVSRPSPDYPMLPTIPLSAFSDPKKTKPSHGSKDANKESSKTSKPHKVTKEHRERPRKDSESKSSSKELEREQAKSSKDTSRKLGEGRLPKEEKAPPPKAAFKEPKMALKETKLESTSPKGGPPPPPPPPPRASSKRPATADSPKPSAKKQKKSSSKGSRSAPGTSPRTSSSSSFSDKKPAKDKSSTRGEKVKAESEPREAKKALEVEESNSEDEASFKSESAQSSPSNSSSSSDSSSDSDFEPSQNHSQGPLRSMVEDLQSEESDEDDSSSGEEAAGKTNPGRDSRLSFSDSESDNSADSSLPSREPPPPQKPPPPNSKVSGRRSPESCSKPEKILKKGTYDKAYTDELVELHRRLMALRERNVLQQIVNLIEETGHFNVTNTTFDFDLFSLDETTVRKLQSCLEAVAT
UniProt Q15773: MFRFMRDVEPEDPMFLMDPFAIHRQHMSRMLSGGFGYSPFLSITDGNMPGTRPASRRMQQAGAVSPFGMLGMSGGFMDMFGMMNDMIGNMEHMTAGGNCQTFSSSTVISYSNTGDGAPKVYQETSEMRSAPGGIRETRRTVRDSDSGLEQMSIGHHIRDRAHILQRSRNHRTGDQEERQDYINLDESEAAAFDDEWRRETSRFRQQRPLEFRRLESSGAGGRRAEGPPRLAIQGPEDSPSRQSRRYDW
UniProt Q9BRT3: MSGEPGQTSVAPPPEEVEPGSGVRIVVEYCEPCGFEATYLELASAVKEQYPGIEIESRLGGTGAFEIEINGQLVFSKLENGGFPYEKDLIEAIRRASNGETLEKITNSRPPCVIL
UniProt Q9Y3A3: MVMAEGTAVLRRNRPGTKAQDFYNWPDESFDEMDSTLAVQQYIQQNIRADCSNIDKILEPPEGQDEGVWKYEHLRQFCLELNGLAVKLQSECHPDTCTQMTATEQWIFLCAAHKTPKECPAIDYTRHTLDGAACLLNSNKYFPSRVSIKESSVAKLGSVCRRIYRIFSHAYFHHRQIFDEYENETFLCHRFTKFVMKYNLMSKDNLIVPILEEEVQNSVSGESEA
UniProt Q86VX9: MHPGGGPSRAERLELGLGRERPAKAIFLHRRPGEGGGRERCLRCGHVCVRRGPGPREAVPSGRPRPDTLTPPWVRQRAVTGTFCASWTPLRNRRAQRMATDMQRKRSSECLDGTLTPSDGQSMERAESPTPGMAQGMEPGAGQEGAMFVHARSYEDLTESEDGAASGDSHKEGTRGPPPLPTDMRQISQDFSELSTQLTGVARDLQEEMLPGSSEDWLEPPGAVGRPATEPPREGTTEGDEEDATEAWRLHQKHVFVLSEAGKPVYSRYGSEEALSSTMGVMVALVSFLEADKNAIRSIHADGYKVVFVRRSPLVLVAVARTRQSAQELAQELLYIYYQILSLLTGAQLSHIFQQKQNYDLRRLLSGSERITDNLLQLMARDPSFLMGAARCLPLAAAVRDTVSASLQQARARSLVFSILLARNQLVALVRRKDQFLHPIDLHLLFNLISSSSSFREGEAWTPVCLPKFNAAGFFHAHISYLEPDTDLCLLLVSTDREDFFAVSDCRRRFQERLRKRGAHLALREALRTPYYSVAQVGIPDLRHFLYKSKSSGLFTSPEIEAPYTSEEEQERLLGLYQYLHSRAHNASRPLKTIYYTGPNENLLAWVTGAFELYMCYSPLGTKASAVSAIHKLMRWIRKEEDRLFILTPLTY
UniProt Q9BVC4, whole entry, looked up: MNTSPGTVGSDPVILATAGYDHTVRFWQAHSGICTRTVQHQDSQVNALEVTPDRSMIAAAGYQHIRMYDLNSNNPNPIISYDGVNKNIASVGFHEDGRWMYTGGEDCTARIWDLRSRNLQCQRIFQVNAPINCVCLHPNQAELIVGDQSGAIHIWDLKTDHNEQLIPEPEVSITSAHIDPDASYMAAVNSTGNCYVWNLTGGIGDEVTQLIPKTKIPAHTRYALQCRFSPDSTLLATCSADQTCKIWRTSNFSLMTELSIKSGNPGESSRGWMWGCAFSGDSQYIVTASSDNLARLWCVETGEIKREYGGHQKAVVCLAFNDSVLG
UniProt Q9NXC5: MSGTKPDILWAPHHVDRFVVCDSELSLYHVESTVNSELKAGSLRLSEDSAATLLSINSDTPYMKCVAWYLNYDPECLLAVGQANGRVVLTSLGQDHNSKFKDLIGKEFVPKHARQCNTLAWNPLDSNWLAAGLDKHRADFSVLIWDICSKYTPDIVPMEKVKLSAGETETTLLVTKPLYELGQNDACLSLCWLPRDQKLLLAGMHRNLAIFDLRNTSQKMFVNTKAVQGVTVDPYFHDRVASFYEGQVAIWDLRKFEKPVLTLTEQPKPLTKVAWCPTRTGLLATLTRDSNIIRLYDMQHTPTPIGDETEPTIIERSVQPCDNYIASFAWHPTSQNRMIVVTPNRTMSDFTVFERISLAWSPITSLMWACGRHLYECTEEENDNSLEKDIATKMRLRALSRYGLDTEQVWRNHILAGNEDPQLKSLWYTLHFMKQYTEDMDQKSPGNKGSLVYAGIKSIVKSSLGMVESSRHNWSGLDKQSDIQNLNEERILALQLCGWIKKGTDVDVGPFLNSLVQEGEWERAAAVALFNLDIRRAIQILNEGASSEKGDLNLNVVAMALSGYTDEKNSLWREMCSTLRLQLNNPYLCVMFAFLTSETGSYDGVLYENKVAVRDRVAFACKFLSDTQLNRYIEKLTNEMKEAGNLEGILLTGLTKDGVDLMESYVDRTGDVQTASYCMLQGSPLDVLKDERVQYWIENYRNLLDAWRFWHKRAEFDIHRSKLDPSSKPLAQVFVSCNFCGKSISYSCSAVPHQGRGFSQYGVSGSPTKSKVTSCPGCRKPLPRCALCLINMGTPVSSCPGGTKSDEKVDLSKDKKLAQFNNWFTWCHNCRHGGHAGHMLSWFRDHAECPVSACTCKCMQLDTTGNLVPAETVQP
UniProt Q99797: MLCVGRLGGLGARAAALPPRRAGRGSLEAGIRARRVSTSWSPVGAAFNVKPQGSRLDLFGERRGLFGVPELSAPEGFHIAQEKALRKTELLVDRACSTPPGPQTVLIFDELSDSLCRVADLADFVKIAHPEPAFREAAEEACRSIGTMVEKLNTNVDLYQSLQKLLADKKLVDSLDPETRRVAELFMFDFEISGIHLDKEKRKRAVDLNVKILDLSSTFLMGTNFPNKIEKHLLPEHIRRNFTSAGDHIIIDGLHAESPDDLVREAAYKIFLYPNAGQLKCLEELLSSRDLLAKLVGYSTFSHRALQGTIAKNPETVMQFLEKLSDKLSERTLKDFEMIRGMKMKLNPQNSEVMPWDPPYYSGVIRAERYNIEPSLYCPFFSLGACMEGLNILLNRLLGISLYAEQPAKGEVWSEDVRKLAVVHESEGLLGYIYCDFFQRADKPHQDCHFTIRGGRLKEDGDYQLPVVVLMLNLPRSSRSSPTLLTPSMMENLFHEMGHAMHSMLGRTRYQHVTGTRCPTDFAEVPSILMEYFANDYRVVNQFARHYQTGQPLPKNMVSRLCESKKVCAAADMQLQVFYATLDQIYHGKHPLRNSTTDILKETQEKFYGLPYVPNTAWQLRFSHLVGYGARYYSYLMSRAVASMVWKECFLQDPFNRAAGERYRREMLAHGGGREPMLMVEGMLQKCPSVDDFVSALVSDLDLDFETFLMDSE

How the values were obtained:
Experiment in all cases: log2 fold change, soluble protein after heating vs DMSO (PISA); higher = thermal stabilisation; K562 lysate, 10 uM; active = over 0.2 and 3.5 SD of the protein, either way, in both replicates (recomputed)
erlotinib = compound: C#Cc1cccc(Nc2ncnc3cc(OCCOC)c(OCCOC)cc23)c1 [erlotinib]
Summary of the method: (§1)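 Quantification was by TMTpro 16plex LC-MS/MS with equalised channel sums, applied to the supernatant after 21,000xg for 90 min. Samples were crude K562 extract at 1 mg/mL protein in PBS pH 7.4 with 1 mM MgCl2, treated with 10 μM compound for 30 min, heated for 3 min across 48°C-58°C, pooled and brought to 0.5% NP-40 at 4°C. Values are log-two fold changes in thermal stability relative to solvent controls, from duplicates.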

[1] = compound: C/C(=N\NC(=O)C1=CC(=CC=C1)S(=O)(=O)N2CCOCC2)/C3=C(C=CC(=C3)Cl)O
Summary of the method: as §1

[2] = compound: C1=CC(=CC=C1C2=NC3=C(N2)C=C(C=C3)C(=O)N)OC4=CC=C(C=C4)Cl
Summary of the method: as §1

[3] = compound: C1=CC2=C(C=CC(=C2)/C=C\3/C(=O)NC(=NCC4=CC=CS4)S3)N=C1
Summary of the method: as §1

[4] = compound: C1=CC2=NC=CN=C2C=C1/C=C/3\C(=O)NC(=O)S3
Summary of the method: as §1

[5] = compound: C1=CC=C(C=C1)C2=NC(=C(N2)C3=CC=NC=C3)C4=CC(=C(C=C4)Cl)O
Summary of the method: as §1

[6] = compound: C1=CC=C2C(=C1)C3=NNC4=CC=CC(=C43)C2=O
Summary of the method: as §1

[7] = compound: C1CCN(C1)C(=O)NC2=CC=CC(=C2)NC3=NC=C(C(=N3)NCCC4=CN=CN4)Br
Summary of the method: as §1

[8] = compound: C1CN(CCC1(CC2=CC=C(C=C2)Cl)N)C3=NC=NC4=C3C=CN4
Summary of the method: as §1

IRAK-1-4 Inhibitor I = compound: C1COCCN1CCN2C3=CC=CC=C3N=C2NC(=O)C4=CC(=CC=C4)[N+](=O)[O-] [IRAK-1-4 Inhibitor I]
Summary of the method: as §1

Measured: log2 fold change

MMTAG2 (UniProt Q9BU76)
inactive: erlotinib 0.048 | [1] -0.062 | [2] 0.054 | [3] -0.018 | [4] -0.056 | [5] 0 | [6] -0.003 | [7] 0.005 | [8] -0.046 | IRAK-1-4 Inhibitor I -0.01

MGA (UniProt Q8IWI9)
inactive: erlotinib 0.024 | [1] 0.018 | [2] 0.048 | [3] 0.055 | [4] 0.005 | [5] -0.008 | [6] -0.177 | [7] -0.092 | [8] 0.065 | IRAK-1-4 Inhibitor I 0.001

MKLN1 (UniProt Q9UL63)
inactive: erlotinib 0.006 | [1] 0.009 | [2] 0.022 | [3] 0.011 | [4] -0.007 | [5] 0.012 | [6] 0 | [7] -0.019 | [8] -0.009 | IRAK-1-4 Inhibitor I -0.016

MRPL17 (UniProt Q9NRX2)
inactive: erlotinib 0 | [1] 0.085 | [2] 0.053 | [3] -0.034 | [4] -0.012 | [5] -0.028 | [6] -0.03 | [7] 0.03 | [8] -0.002 | IRAK-1-4 Inhibitor I 0.013

MINK1 (UniProt Q8N4C8)
inactive: erlotinib 0.057 | [1] 0.058 | [2] -0.059 | [3] 0.135 | [4] 0.045 | [5] -0.141 | [6] 0 | [7] 0.016 | [8] -0.037 | IRAK-1-4 Inhibitor I 0.061

MRPL21 (UniProt Q7Z2W9)
inactive: erlotinib -0.068 | [1] -0.012 | [2] 0.072 | [3] -0.002 | [4] 0.032 | [5] 0.03 | [6] 0.019 | [7] -0.071 | [8] 0.05 | IRAK-1-4 Inhibitor I 0.002

MOSPD2 (UniProt Q8NHP6)
inactive: erlotinib -0.049 | [1] 0.152 | [2] 0 | [3] 0.072 | [4] 0.027 | [5] -0.015 | [6] 0.157 | [7] -0.062 | [8] -0.023 | IRAK-1-4 Inhibitor I 0.057

MON1B (UniProt Q7L1V2)
inactive: erlotinib 0.042 | [1] 0.029 | [2] -0.014 | [3] -0.01 | [4] 0.006 | [5] -0.015 | [6] 0.005 | [7] -0.009 | [8] 0.04 | IRAK-1-4 Inhibitor I 0.03

MRPL11 (UniProt Q9Y3B7)
inactive: erlotinib 0.03 | [1] -0.023 | [2] 0.021 | [3] 0.013 | [4] 0.026 | [5] -0.01 | [6] -0.101 | [7] -0.015 | [8] 0.002 | IRAK-1-4 Inhibitor I 0.033

MNX1 (UniProt P50219)
inactive: erlotinib -0.028 | [1] -0.011 | [2] 0.092 | [3] -0.045 | [4] 0.138 | [5] -0.041 | [6] 0.011 | [7] 0.123 | [8] 0.053 | IRAK-1-4 Inhibitor I -0.043

MLLT1 (UniProt Q03111)
inactive: erlotinib -0.038 | [1] -0.014 | [2] -0.025 | [3] 0.059 | [4] -0.044 | [5] 0.015 | [6] 0.021 | [7] 0.061 | [8] -0.006 | IRAK-1-4 Inhibitor I 0.034

MPV17 (UniProt P39210)
inactive: erlotinib 0.08 | [1] 0.243 | [2] -0.06 | [3] 0.056 | [4] -0.084 | [5] 0.071 | [6] 0.068 | [7] -0.034 | [8] -0.085 | IRAK-1-4 Inhibitor I 0.093

MLF2 (UniProt Q15773)
inactive: erlotinib 0.003 | [1] 0.034 | [2] 0.056 | [3] 0.036 | [4] 0.054 | [5] -0.028 | [6] -0.021 | [7] 0.083 | [8] 0.058 | IRAK-1-4 Inhibitor I 0

MIER1 isoform 12 (UniProt Q8N108)
inactive: erlotinib -0.04 | [1] -0.018 | [2] 0.039 | [3] -0.001 | [4] -0.026 | [5] -0.035 | [6] 0.007 | [7] -0.01 | [8] 0.022 | IRAK-1-4 Inhibitor I -0.002

MOCOS (UniProt Q96EN8)
inactive: erlotinib 0.02 | [1] -0.064 | [2] 0.028 | [3] -0.007 | [4] -0.011 | [5] -0.033 | [6] 0.045 | [7] 0.078 | [8] 0.002 | IRAK-1-4 Inhibitor I -0.012

MIEN1 (UniProt Q9BRT3)
inactive: erlotinib 0.02 | [1] 0.036 | [2] -0.063 | [3] 0.022 | [4] -0.049 | [5] -0.007 | [6] -0.021 | [7] -0.027 | [8] 0.047 | IRAK-1-4 Inhibitor I -0.026

MOB4 (UniProt Q9Y3A3)
inactive: erlotinib 0.016 | [1] -0.018 | [2] 0.054 | [3] 0.041 | [4] 0.028 | [5] -0.025 | [6] 0.049 | [7] -0.002 | [8] 0.056 | IRAK-1-4 Inhibitor I 0.037

MON1A (UniProt Q86VX9)
inactive: erlotinib -0.008 | [1] -0.296 | [2] 0.05 | [3] -0.103 | [4] 0.014 | [5] -0.077 | [6] -0.023 | [7] 0.14 | [8] -0.046 | IRAK-1-4 Inhibitor I 0.018

MIS12 (UniProt Q9H081)
inactive: erlotinib -0.009 | [1] -0.022 | [2] 0.006 | [3] -0.001 | [4] -0.01 | [5] -0.011 | [6] 0.019 | [7] -0.038 | [8] 0.031 | IRAK-1-4 Inhibitor I 0.007

MGAT5 (UniProt Q09328)
inactive: erlotinib 0.037 | [1] 0.03 | [2] 0.087 | [3] 0.044 | [4] 0.078 | [5] -0.003 | [6] 0.132 | [7] -0.03 | [8] 0.066 | IRAK-1-4 Inhibitor I -0.05

MLST8 (UniProt Q9BVC4)
inactive: erlotinib 0.038 | [1] 0.008 | [2] -0.041 | [3] 0.015 | [4] 0.012 | [5] 0.015 | [6] 0.002 | [7] -0.091 | [8] 0.033 | IRAK-1-4 Inhibitor I -0.001

MOV10 (UniProt Q9HCE1)
inactive: erlotinib -0.005 | [1] 0.015 | [2] -0.019 | [3] -0.003 | [4] -0.015 | [5] -0.004 | [6] -0.015 | [7] 0 | [8] 0.012 | IRAK-1-4 Inhibitor I -0.016

MIER2 (UniProt Q8N344)
inactive: erlotinib -0.011 | [1] -0.043 | [2] 0.226 | [3] -0.038 | [4] 0 | [5] 0.057 | [6] 0.085 | [7] -0.055 | [8] 0.749 | IRAK-1-4 Inhibitor I 0.001

MPZL1 (UniProt O95297)
inactive: erlotinib -0.057 | [1] 0.068 | [2] -0.036 | [3] 0.003 | [4] -0.042 | [5] 0.017 | [6] -0.005 | [7] 0.015 | [8] -0.04 | IRAK-1-4 Inhibitor I 0.015

MPP1 (UniProt Q00013)
inactive: erlotinib 0.014 | [1] 0.017 | [2] -0.007 | [3] -0.008 | [4] -0.025 | [5] 0.014 | [6] -0.014 | [7] 0.003 | [8] 0.018 | IRAK-1-4 Inhibitor I -0.007

MIOS (UniProt Q9NXC5)
inactive: erlotinib -0.003 | [1] -0.007 | [2] 0.005 | [3] 0.034 | [4] 0.016 | [5] 0.02 | [6] -0.021 | [7] -0.025 | [8] -0.001 | IRAK-1-4 Inhibitor I -0.017

MIPEP (UniProt Q99797)
inactive: erlotinib -0.048 | [1] -0.06 | [2] 0.005 | [3] 0.021 | [4] 0.019 | [5] -0.029 | [6] -0.008 | [7] 0.006 | [8] 0.005 | IRAK-1-4 Inhibitor I -0.004

MPHOSPH10 (UniProt O00566)
inactive: erlotinib -0.012 | [1] 0.017 | [2] -0.048 | [3] 0.009 | [4] -0.017 | [5] 0.002 | [6] 0.038 | [7] 0.026 | [8] 0.031 | IRAK-1-4 Inhibitor I 0.001

MINDY1 isoform 3 (UniProt Q8N5J2)
inactive: erlotinib 0.052 | [1] -0.006 | [2] 0.048 | [3] -0.031 | [4] 0.245 | [5] 0.053 | [6] 0.056 | [7] -0.082 | [8] -0.066 | IRAK-1-4 Inhibitor I -0.02

Reprinted from the entries so far (2 entries):
MIPEP (UniProt Q99797)
inactive: erlotinib -0.048 | [1] -0.06 | [2] 0.005 | [3] 0.021 | [4] 0.019 | [5] -0.029 | [6] -0.008 | [7] 0.006 | [8] 0.005 | IRAK-1-4 Inhibitor I -0.004

MPHOSPH10 (UniProt O00566)
inactive: erlotinib -0.012 | [1] 0.017 | [2] -0.048 | [3] 0.009 | [4] -0.017 | [5] 0.002 | [6] 0.038 | [7] 0.026 | [8] 0.031 | IRAK-1-4 Inhibitor I 0.001

Remaining list, next part.

MICOS13 (UniProt Q5XKP0)
inactive: erlotinib 0.084 | [1] 0.085 | [2] -0.13 | [3] 0.004 | [4] -0.002 | [5] -0.011 | [6] 0.047 | [7] 0.013 | [8] 0.015 | IRAK-1-4 Inhibitor I -0.008
